Reference: patent US20020082213A1 (priority 1996, published 2002)
For at least one compound, name, drawing or mass did not settle the structure.

How the values were obtained:
[1] = test system: female albino mice (Ibm: MORO); assay: Operant conflict test for anxiolytic effect; assay type: in vivo; details: 3 nmol/mouse intracerebroventricular
mice = details: cited from earlier work
[2] = test system: DBA/2J mice (genetically sound sensitive); assay: Audiogenic seizure model for antiepileptic/anticonvulsant effects; assay type: in vivo; details: intracerebroventricular, auditory stimulation 5 minutes after treatment; probit analysis
[3] = test system: rat dorsal raphe nucleus neurons; details: brain slice; cited from earlier work
LC132 receptors = details: cited from earlier work
[4] = test system: male albino mice (Ibm: MORO); assay: Light-dark box task for anxiolytic effect; assay type: in vivo; details: for time spent in the illuminated box (mean ±sem): 5-minute session, P<0.05 vs vehicle 11±5 sec; for number of transition attempts (mean ±sem): P<0.05 vs vehicle 3.0±0.5
[5] = test system: untransfected CHO cells (CHO dhfr- wild type); assay: Forskolin-stimulated cAMP accumulation in untransfected CHO cells; assay type: cell-based
[6] = 0.3 nmol/mouse intracerebroventricular
[7] = 1 nmol/mouse intracerebroventricular

CC(C)C[C@H](NC(=O)[C@H](CCCCN)NC(=O)[C@H](CCCN=C(N)N)NC(=O)[C@H](C)NC(=O)[C@H](CO)NC(=O)[C@H](CCCCN)NC(=O)[C@H](CCCN=C(N)N)NC(=O)[C@H](C)NC(=O)CNC(=O)[C@@H](NC(=O)[C@H](Cc1ccccc1)NC(=O)CNC(=O)CNC(=O)[C@@H](N)Cc1ccccc1)[C@@H](C)O)C(=O)N[C@@H](C)C(=O)N[C@@H](CC(N)=O)C(=O)N[C@@H](CCC(N)=O)C(=O)O [OFQ, F-G-G-F-T-G-A-R-K-S-A-R-K-L-A-N-Q]
unpunished responding (mean ±sem) ([1]; initial 5-min period, nonsignificant reduction vs vehicle 36.3±7.4): 24.6±3.6 | punished responding (mean ±sem) ([1]; subsequent 15-min period, P<0.05 vs vehicle 4.3±1.6): 16.2±6.0 | nociception (Meunier et al.) (mice; administered intracerebroventricularly to mice): induces hyperalgesia | locomotor activity (Reinscheid et al.) (mice; injected intracerebroventricularly in mice): decreased locomotor activity | nociception in the tail-flick test (Reinscheid et al.) (mice; injected intracerebroventricularly in mice, tail-flick test (but not in the hot-plate test)): induced hyperalgesia | ED50, protection against acoustically induced tonic seizures [2]: 0.7 nmol/mouse | inwardly rectifying K conductance [3]: potently and efficaciously increased | effect on adenylate cyclase (LC132 receptors): inhibits adenylate cyclase | time spent in the illuminated box (mean ±sem) [4, 6]: 54 ± 14 s | number of transition attempts (mean ±sem) [4, 6]: 1.2±0.6 | time spent in the illuminated box (mean ±sem) [4, 7]: 58 ± 19 s | number of transition attempts (mean ±sem) [4, 7]: 0.7±0.2 | number of transition attempts (mean ±sem) ([4]; 3 nmol/mouse intracerebroventricular): 0.4±0.3 | effect on forskolin-stimulated cAMP accumulation in untransfected cells [5]: no effect
